Assay results reported in paper PMC8144581.
Results are given in words; binding and its absence hold for the method and conditions named. Binding calls can cover weak binding; strength is not graded here.

Target: T1, SPM1 (T. gondii) (UniProt S8F1Y1)
T1 sequence: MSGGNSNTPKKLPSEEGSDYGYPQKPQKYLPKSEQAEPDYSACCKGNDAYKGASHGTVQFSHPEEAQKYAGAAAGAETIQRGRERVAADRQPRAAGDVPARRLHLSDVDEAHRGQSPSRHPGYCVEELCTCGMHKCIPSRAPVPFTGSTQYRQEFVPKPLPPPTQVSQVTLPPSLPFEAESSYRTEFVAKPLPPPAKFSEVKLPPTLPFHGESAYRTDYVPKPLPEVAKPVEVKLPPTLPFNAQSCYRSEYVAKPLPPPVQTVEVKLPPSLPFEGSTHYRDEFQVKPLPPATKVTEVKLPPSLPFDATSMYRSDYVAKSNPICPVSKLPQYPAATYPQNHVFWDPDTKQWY
Assay: cryo-EM structure; ex vivo cortical MTs in cholic acid extracted T. gondii parasites, not separated from the IMC; single-particle analysis with 8-nm periodicity; overall 4.0 Å, sub-regions of two protofilaments around 3.4 Å; focused 3D classification for TrxL2 bound and unbound at sites x and y

binding | Substance
binds | TrxL2 (T. gondii)
binds | TrxL1 (T. gondii)
